Source: patent publication US12653892B2, “Composition and method for new therapeutic agents including guanidinium-presenting dendrimers and branched structures” (priority 2020, dated 2026)
In brackets after ≈: the same amount, converted by molar mass.

Assays:
[1] = test system: E. faecium ATCC 51559 (VRE); test: MIC by broth microdilution, E. faecium ATCC 51559 (VRE); type: cell-based; conditions: Enterococcus faecium
Protocol: (§1) Methods—Determination of MICs: MICs for S. aureus, E. faecium, E. coli, P aeruginosa, A. baumannii, K. pneumoniae were determined using broth microdilution in accordance with CLSI methods (Wiegand, I.; Hilpert, K.; Hancock, R. E. W. Agar and Broth Dilution Methods to Determine the Minimal Inhibitory Concentration (MIC) of Antimicrobial Substances. Nat. Protoc. 2008, 3, 163-175). One day prior to each MIC experiment, bacterial strains were streaked for single colonies on TSA plates from frozen glycerol stocks stored at −80° C. Three to five colonies from each plate were harvested with a disposable inoculating loop and resuspended in 500 μL of PBS to create a bacterial suspension. Alternatively, a single colony of the appropriate bacterial strain was added to 4 mL TSB for overnight growth at 37° C. with 200 rpm shaking to create a stationary phase bacterial suspension. The suspension was diluted in PBS to an OD600 of 0.1 (˜[…] CFU/ml), and the OD 0.1 suspension was diluted 1:100 in Mueller Hinton broth (MHB, Difco 257530) just prior to inoculating the 96-well polypropylene treatment plate (Costar 3879). […] The MIC was read as the lowest treatment concentration where no bacterial growth occurred, as determined by OD600 measurements on a microplate reader. […]

P. aeruginosa PA14 = test: MIC by broth microdilution, P. aeruginosa PA14; type: cell-based; conditions: Pseudomonas aeruginosa
Protocol: as §1

CN[C@H](CC(C)C)C(=O)N[C@H]1C(=O)N[C@@H](CC(N)=O)C(=O)N[C@H]2C(=O)N[C@H]3C(=O)N[C@H](C(=O)N[C@H](C(=O)O)c4cc(O)cc(O)c4-c4cc3ccc4O)[C@H](O)c3ccc(c(Cl)c3)Oc3cc2cc(c3O[C@@H]2O[C@H](CO)[C@@H](O)[C@H](O)[C@H]2O[C@H]2C[C@](C)(N)[C@H](O)[C@H](C)O2)Oc2ccc(cc2Cl)[C@H]1O [Vancomycin]
MIC [1]: 512 µM (≈ 742 µg/mL)
MIC (P. aeruginosa PA14): > 256 µM
